Experimental data: PubChem BioAssay AID1273 (Columbia University Molecular Screening Center, 2008)
About 1,200 (0.92%) of roughly 130,000 compounds were called active. Inconclusive means that the source gave no clear call. Such entries were picked first, then a sample of the others.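 The calls were made as follows: active = inhibition above the mean plus 3 SD, with well images judged a real hit on visual review (cut at about 60% in these data, passing the limit was not always enough); inconclusive = inhibition over the cutoff but images rejected on review; inactive = inhibition not above the cutoff.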

assay: inhibitors of insulin promoter-driven GFP, primary screen, imaging, TRM-6 cells (human fetal islet line), eGFP reporter, cell count (AID 1273); conditions: at 2 µM, stronger effect = higher value, reporter expression induced with tamoxifen

| Compound | inhibition |
| --- | --- |
| CC(C(=O)Nc1ccc(S(=O)(=O)N2CCOCC2)cc1)N(c1ccccc1)S(C)(=O)=O (stereo not drawn) | inconclusive: 65.6% |
| Cc1ccccc1N1C(=O)C(Cl)=C(N2CCN(c3ccccc3)CC2)C1=O | inconclusive: 71.4% |
| Cc1nn(C)cc1CNC(=O)c1cccc(Br)c1 | inconclusive: 80% |
| Cc1cc(C(=O)NCCCN(C)C)c2ccccc2n1 | active: 77.8% |
| O=C(Nc1nc(-c2ccc(S(=O)(=O)N3CCCCCC3)cc2)cs1)c1cccs1 | inconclusive: 77.1% |
| CCCCc1c(O)nc2sccn2c1=O | inactive: 34.2% |
| CCc1nnc(NS(=O)(=O)c2ccc(NC(=O)c3cccc(Cl)c3)cc2)s1 | inconclusive: 77.8% |
| COc1ccc(OC)c(NC(=O)CN2CCC(C(=O)c3ccc(C)cc3)CC2)c1 | inconclusive: 83.3% |
| COc1ccc(C(=O)NCCN2CCOCC2)cc1OC | inconclusive: 86% |
| CCn1ncc([N+](=O)[O-])c1C(=O)n1nc(C)cc1C | inactive: -12.1% |
| Cc1ccnc(SCCn2c(N3CCC(C)CC3)nc3c2c(=O)n(C)c(=O)n3C)n1 | inconclusive: 41.3% |
| COC(=O)CNC(=O)c1ccc(=O)oc1 | inconclusive: 90.9% |
| O=C(Oc1ccc(N(Cc2cccs2)C2=NS(=O)(=O)c3ccccc32)cc1)c1ccccc1Cl | inconclusive: 75% |
| COc1cccc(CNc2ncnc3cc(Cl)ccc23)c1 | inconclusive: 73.3% |
| O=C(/C=C/c1ccccc1)OCc1cnc(Cl)s1 | inactive: 38.5% |
| CC1CCN(C(=O)Cc2nn(C)c(=O)c3ccccc23)CC1 | inconclusive: 73.3% |
| COCC(=O)N(Cc1ccccc1)c1ccccn1 | inconclusive: 77.1% |
| Cc1c(-c2nc(N)nc(Nc3ccc(F)cc3)n2)oc2ccccc12 | inconclusive: 76.9% |
| CCCn1nnnc1SCC(=O)N1CCOCC1 | active: 83.3% |
| N#C/C(=C/c1ccc(Sc2nc3ccccc3[nH]2)o1)c1cccc(F)c1 | active: 72.2% |

| Compound | inhibition |
| --- | --- |
| CCOC(=O)N1CCN(C(=O)CCSCCc2ccncc2)CC1 | active: 78.6% |
| CC(=O)N(Cc1ccccc1C)c1cccc(C)c1C | inactive: -41.2% |
| O=C1CCC(C(=O)NC2(C(=O)NC3CCCCC3)CCCCC2)N1 (stereo not drawn) | inconclusive: 81.8% |
| O=C(CN1C(=O)CSc2ccc(S(=O)(=O)N3CCCCC3)cc21)NCc1cccnc1 | inconclusive: 64.3% |
| COc1ccc(-c2[nH]nc3oc(=O)c(CCO)c(C)c23)cc1 | inconclusive: 75% |
| CCN(CC)S(=O)(=O)c1ccc(N/N=C/c2cc(OC)ccc2O)nc1 | inconclusive: 66.7% |
| CCOC(=O)C/C(N)=N/NC(=O)c1ccc(Cl)cc1Cl | inactive: -47.1% |
| Cn1c(=O)c2c(nc(CN3CCN(Cc4ccccc4)CC3)n2Cc2ccccc2)n(C)c1=O | inconclusive: 80% |
| COc1ccc(CCN(Cc2ccccn2)C(=S)Nc2cccc(SC)c2)cc1OC | inactive: -40% |
| Cc1ccc(CNC(=O)c2ccc(-n3cccc3)cc2)cc1 | active: 100% |
| CCN1CCN(C(=S)c2ccc(Cl)cc2)CC1 | inactive: 53.3% |
| Cc1ccc(C2=NC3(CCCCC3)NC2=S)cc1 | active: 62.5% |
| Cc1nn(-c2ccccc2)c(Cl)c1CN(C(=O)CCl)c1ccc(Cl)cc1 | inconclusive: 100% |
| COc1ccccc1-c1noc(-c2ccccc2C(=O)Nc2ccccc2)n1 | inconclusive: 71.4% |
| COc1ccc(C(=O)Nn2c(SCC(=O)c3ccc(Cl)cc3)nc3ccccc3c2=O)cc1 | active: 82.9% |
| CN1CCN(c2ccccc2NC(=O)c2cccc(OCc3ccccc3)c2)CC1 | inactive: -41.4% |
| C=CCSC1=C(C#N)C(c2ccccc2OCC)CC(=O)N1 (stereo not drawn) | inconclusive: 81.5% |
| CC1Oc2ccccc2C=C1C1/C(=C(/O)c2ccccc2)C(=O)C(=O)N1CCCN(C)C (stereo not drawn) | inconclusive: 72.7% |
| NC(=O)C1CCCN(C(=S)NCc2ccc3c(c2)OCO3)C1 (stereo not drawn) | inactive: -55.6% |
| CCc1nc2cc(Cl)c(Cl)cc2[nH]1 | inconclusive: 76.3% |

In the list so far, 2 have a thiophene ring, fused or not.

| Compound | inhibition |
| --- | --- |
| O=C(Nc1nc(-c2ccc(S(=O)(=O)N3CCCCCC3)cc2)cs1)c1cccs1 | inconclusive: 77.1% |
| O=C(Oc1ccc(N(Cc2cccs2)C2=NS(=O)(=O)c3ccccc32)cc1)c1ccccc1Cl | inconclusive: 75% |

(continued)

| Compound | inhibition |
| --- | --- |
| Clc1ccc(OCCn2ccnc2)c(Cl)c1 | inactive: -100% |
| CCC(=NC(C)c1ccccc1)c1c(O)n(C)c(=O)n(C)c1=O (stereo not drawn) | active: 81.1% |
| Cc1ccc(C(C)C)c(OCCNS(C)(=O)=O)c1 | inconclusive: 90% |
| Cc1ccc(CN2C(=O)CCC2C(=O)NCCCN2CCC(C)CC2)cc1 (stereo not drawn) | inconclusive: 77.8% |
| COc1ccc(NS(=O)(=O)c2ccc(O)c(NC(=O)c3cc4c(C)nn(-c5ccc(F)cc5)c4s3)c2)cc1 | inconclusive: 84.6% |
| O=C1Nc2ccc(S(=O)(=O)NCCC3=CCCCC3)c3cccc1c23 | inconclusive: 37.4% |
| c1ccc(-c2oc3ncnc(NCCCn4ccnc4)c3c2-c2ccccc2)cc1 | inactive: -5.88% |
| COc1cc(OC)cc(C(=O)NCC(=O)OCC(=O)Nc2ccc3c(c2)OCO3)c1 | inconclusive: 83.3% |
| Cc1ccc(C(=O)NNC2CC(=O)N(c3ccc4c(c3)OCCO4)C2=O)cc1 (stereo not drawn) | active: 85% |
| Cc1nc2ccccc2c(=O)n1NC(=O)c1ccccc1[N+](=O)[O-] | inconclusive: 77.8% |
| Cc1nc2c3cc(F)ccc3n(Cc3ccccc3F)c2s1 | inactive: 23.3% |
| Cc1ccccc1-c1noc(-c2cccs2)n1 | inconclusive: 80% |
| COc1cc(OC)c(C2=NOC(C(=O)Nc3c(C)nn(CC(=O)N4CCCC4)c3C)C2)cc1Cl (stereo not drawn) | inconclusive: 88.2% |
| CC(=O)Nc1nn(C)c2nc3cc(C)ccc3cc12 | inconclusive: 81.2% |
| CCN(CC)S(=O)(=O)c1ccc(Cl)c(C(=O)N2CCc3ccccc32)c1 | inactive: -15.6% |
| COC(=O)CSCC(=O)Nc1cc2c(cc1C(C)=O)OCO2 | inconclusive: 70.6% |
| O=C(Nc1ccc(S(=O)(=O)N2CCCCC2)cc1)c1ccc(CN2CCOCC2)cc1 | inconclusive: 75% |
| Cc1cccc(-c2noc(-c3ccccc3C(=O)NCC3CCCO3)n2)c1 (stereo not drawn) | inconclusive: 71.4% |
